In patent publication US20260240982A1 (priority 2023, published 2026):
At least one peptide structure holds a part that was inferred or is arguable (an end, a ring closure or a residue).

How the values were obtained:
[1] = system: Nipah pseudovirus RVP-1801; type: cell-based, Nipah virus
NiV = type: cell-based, Nipah virus

Compound	antiviral activity in the Nipah pseudovirus assay (Example 2 summary, FIGS. 14 and 15) [1]	antiviral activity in the Nipah pseudovirus assay (FIG. 14) [1]	antiviral activity, dose response in the Nipah pseudovirus assay (FIG. 15) [1]	antiviral activity in the NiV live virus assay (Example 2 summary, FIGS. 16 to 18) (NiV)	antiviral activity in the Nipah live virus assay (FIG. 16) (NiV)	antiviral activity in the Nipah live virus assay (FIG. 17) (NiV)	antiviral activity in the Nipah live virus assay (FIG. 18) (NiV)
CCCC[C@H](NC(=O)[C@H](CO)NC(=O)[C@H](CO)NC(=O)[C@@H](NC(=O)[C@H](CCC(N)=O)NC(=O)[C@H](CO)NC(=O)[C@H](CO)NC(=O)[C@@H](NC(=O)[C@H](CC(=O)O)NC(C)=O)[C@@H](C)CC)[C@@H](C)CC)C(=O)N[C@@H](CC(N)=O)C(=O)N[C@@H](CCC(N)=O)C(=O)N[C@@H](CO)C(=O)N[C@@H](CC(C)C)C(=O)N[C@@H](CCC(N)=O)C(=O)N[C@@H](CCC(N)=O)C(=O)N[C@@H](CO)C(=O)N[C@@H](CCCCN)C(=O)N[C@@H](CC(=O)O)C(=O)N[C@@H](Cc1ccc(O)cc1)C(=O)N[C@H](C(=O)N[C@@H](CCCCN)C(=O)N[C@]1(C)CCCCCCC=CCCC[C@@](C)(C(=O)N[C@H](C(=O)N[C@@H](CCCCNC(=O)CCOCCOCCOCCOCCNC(=O)CSC2CC[C@@]3(C)C(=CC[C@H]4[C@@H]5CC[C@H]([C@H](C)CCCC(C)C)[C@@]5(C)CC[C@@H]43)C2)C(N)=O)C(C)C)NC(=O)[C@H](CC(=O)O)NC(=O)[C@H](CC(C)C)NC(=O)[C@H]([C@@H](C)CC)NC(=O)[C@H](CCCCN)NC(=O)[C@H](CCC(N)=O)NC(=O)[C@H](C)NC1=O)[C@@H](C)CC (stereo partly drawn) [SEQ ID NO: 147, DISSQISSBNQSLQQSKDYIK8AQKILDXV*]	uniquely potent activity	potent activity	moderate activity	moderate activity	moderate activity	potent activity	uniquely potent activity
CCCC[C@H](NC(=O)[C@H](CO)NC(=O)[C@H](CO)NC(=O)[C@@H](NC(=O)[C@H](CCC(N)=O)NC(=O)[C@H](CO)NC(=O)[C@H](CO)NC(=O)[C@@H](NC(=O)[C@H](CC(=O)O)NC(C)=O)[C@@H](C)CC)[C@@H](C)CC)C(=O)N[C@@H](CC(N)=O)C(=O)N[C@@H](CCC(N)=O)C(=O)N[C@@H](CO)C(=O)N[C@@H](CC(C)C)C(=O)N[C@@H](CCC(N)=O)C(=O)N[C@@H](CCC(N)=O)C(=O)N[C@@H](CO)C(=O)N[C@@H](CCCCN)C(=O)N[C@@H](CC(=O)O)C(=O)N[C@@H](Cc1ccc(O)cc1)C(=O)N[C@H](C(=O)N[C@@H](CCCCN)C(=O)N[C@@H](CCC(=O)O)C(=O)N[C@]1(C)CCCCCCC=CCCC[C@@](C)(C(=O)N[C@@H](CCCCNC(=O)CCOCCOCCOCCOCCNC(=O)CSC2CC[C@@]3(C)C(=CC[C@H]4[C@@H]5CC[C@H]([C@H](C)CCCC(C)C)[C@@]5(C)CC[C@@H]43)C2)C(N)=O)NC(=O)[C@H]([C@@H](C)O)NC(=O)[C@H](CC(=O)O)NC(=O)[C@H](CC(C)C)NC(=O)[C@H]([C@@H](C)CC)NC(=O)[C@H](CCCCN)NC(=O)[C@H](CCC(N)=O)NC1=O)[C@@H](C)CC (stereo partly drawn) [SEQ ID NO: 148, DISSQISSBNQSLQQSKDYIKE8QKILDTX*]	little to no activity	–	–	little to no activity	moderate activity	little to no activity	little to no activity
